From paper PMC5650320
These are yes or no findings as the source states them, for the method shown. Binding seen in cells or lysates may run through a third protein. A yes stands for co-enrichment or nearness to the bait. Other partners may have been found.

Amino acid sequences for entries named in this document (tags omitted). A change or cut given only in a name is not applied to a line headed by its entry. Residues count along the entry.
UniProt P39905: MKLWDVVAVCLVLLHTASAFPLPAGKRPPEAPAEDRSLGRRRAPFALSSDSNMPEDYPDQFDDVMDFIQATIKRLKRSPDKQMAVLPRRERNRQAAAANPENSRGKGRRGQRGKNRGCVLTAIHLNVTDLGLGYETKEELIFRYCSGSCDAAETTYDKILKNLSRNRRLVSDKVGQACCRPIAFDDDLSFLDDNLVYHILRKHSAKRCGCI
UniProt P13596, residues 20-858: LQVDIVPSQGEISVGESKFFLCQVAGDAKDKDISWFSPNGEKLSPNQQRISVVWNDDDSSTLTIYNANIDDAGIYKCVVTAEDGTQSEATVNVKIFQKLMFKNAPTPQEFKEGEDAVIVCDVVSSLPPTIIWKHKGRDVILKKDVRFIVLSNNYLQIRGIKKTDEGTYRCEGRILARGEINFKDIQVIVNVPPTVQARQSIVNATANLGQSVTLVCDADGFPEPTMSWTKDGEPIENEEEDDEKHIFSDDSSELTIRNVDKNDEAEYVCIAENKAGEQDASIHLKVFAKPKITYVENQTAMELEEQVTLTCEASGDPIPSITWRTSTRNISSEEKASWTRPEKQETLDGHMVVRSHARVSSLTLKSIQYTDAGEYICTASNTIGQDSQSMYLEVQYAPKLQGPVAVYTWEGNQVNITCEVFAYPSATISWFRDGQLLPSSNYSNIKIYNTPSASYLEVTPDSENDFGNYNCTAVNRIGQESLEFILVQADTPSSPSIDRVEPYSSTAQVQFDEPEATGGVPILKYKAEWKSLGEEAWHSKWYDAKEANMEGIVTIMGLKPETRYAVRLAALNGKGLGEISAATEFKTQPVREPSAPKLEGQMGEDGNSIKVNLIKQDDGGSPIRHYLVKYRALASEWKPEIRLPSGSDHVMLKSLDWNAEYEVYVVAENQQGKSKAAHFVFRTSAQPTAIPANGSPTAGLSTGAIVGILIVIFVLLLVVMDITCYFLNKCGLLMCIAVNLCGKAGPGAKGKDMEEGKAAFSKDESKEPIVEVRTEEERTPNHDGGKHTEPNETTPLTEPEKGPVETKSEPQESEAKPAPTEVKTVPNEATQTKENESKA
UniProt Q99J86, residues 87-1432: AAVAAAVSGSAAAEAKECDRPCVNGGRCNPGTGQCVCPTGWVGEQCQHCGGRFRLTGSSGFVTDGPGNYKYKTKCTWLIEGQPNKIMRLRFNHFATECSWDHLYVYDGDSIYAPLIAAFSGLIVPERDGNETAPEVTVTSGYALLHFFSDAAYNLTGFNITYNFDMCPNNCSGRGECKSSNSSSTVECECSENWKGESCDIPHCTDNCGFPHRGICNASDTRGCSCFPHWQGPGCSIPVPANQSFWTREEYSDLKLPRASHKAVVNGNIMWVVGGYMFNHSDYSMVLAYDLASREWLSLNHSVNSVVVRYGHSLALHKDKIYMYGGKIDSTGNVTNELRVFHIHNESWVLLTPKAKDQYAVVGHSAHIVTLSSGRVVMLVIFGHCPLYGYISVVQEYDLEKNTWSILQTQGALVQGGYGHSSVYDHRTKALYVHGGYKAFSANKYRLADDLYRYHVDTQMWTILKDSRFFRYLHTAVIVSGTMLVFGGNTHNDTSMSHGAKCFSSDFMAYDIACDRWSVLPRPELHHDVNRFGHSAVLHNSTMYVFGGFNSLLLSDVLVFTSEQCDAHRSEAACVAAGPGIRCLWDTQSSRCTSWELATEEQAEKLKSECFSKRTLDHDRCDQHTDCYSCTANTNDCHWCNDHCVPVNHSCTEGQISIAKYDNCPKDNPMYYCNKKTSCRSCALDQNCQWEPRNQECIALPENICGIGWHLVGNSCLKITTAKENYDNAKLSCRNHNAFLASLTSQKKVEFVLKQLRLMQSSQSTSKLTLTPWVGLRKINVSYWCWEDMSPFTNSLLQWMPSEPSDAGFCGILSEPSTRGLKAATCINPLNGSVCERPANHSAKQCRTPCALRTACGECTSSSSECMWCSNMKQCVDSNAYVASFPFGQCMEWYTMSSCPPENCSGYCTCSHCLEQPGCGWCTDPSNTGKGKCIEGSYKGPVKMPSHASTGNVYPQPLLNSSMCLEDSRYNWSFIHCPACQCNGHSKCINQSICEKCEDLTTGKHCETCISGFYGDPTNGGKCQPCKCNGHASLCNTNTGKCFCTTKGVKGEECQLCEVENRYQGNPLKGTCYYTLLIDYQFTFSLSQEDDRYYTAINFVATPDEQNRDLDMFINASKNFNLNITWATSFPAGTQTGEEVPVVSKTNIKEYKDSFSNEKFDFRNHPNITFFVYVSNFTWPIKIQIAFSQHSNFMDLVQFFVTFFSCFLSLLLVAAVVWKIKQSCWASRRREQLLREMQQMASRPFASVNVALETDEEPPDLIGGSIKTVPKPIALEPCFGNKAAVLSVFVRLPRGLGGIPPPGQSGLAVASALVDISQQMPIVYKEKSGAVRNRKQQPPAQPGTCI

Molecular target: glutathione S-transferase tagged GDNF (GST-GDNF) (UniProt P39905)
Assay: affinity purification with mass spectrometry; GST pull-down: membrane proteins of C6 rat glioma cells or primary rat astrocytes in PBS mixed with 15 ug GST-GDNF (or 5 ug GST alone), 1 h at 4°C, GST beads overnight at 4°C, washed thrice with PBS, eluted with 50 mM glutathione in 50 mM Tris pH 8.1; SDS-PAGE, in-gel trypsin digest, LC-MS/MS; hits picked by bioinformatics (GO, PANTHER); only the target purified

Row | Molecule | binding
1 | neural cell adhesion molecule (NCAM1) (from UniProt P13596 20-858) (receptor) | binds
2 | neuropilin-2 (NRP2) (receptor, UniProt O35276 23-925) QQDPPCGGRLNSKDAGYITSPGYPQDYPSHQNCEWVVYAPEPNQKIVLNFNPHFEIEKHDCKYDFIEIRDGDSESADLLGKHCGNIAPPTIISSGSVLYIKFTSDYARQGAGFSLRYEIFKTGSEDCSKNFTSPNGTIESPGFPEKYPHNLDCTFTILAKPRMEIILQFLTFDLEHDPLQVGEGDCKYDWLDIWDGIPHVGPLIGKYCGTKTPSKLRSSTGILSLTFHTDMAVAKDGFSARYYLVHQEPPENFQCNAPLGMESGRIANEQISASSTFSDGRWTPQQSRLHGDDNGWTPNVDSNKEYLQVDLRFLTMLTAIATQGAISRETQKGYYVKSYKLEVSTNGEDWMVYRHGKNHKVFQANNDATELVLNKLHTPLLTRFIRIRPQTWHLGIALRLELFGCRVTDAPCSNMLGMLSGLIADTQISASSTREYLWSPSAARLVSSRSGWFPRNPQAQPGEEWLQVDLGTPKTVKGVIIQGARGGDSITAMEARAFVRKFKVSYSLNGKDWEYIQDPRTQQPKLFEGNMHYDTPDIRRFEPVPAQYVRVYPERWSPAGIGMRLEVLGCDWTDSKPTVETLGPTVKSEETTTPYPMDEDATECGENCSFEDDKDLQLPSGFNCNFDFPEETCGWMYDRAKWLQSTWISSANPNDRTFPDDKNFLKLQSDGGREGQFGRLISPPVHLPRSPVCMEFQYQAMGGHGVALQVVREARQESKLLWVIREDQGSEWKHGRIILPSYDMEYQIVFEGVIGKGRSGEISIDDIRISTDVPLENCMEPISAFAVDIPEIHGGEGYEDEIDDDYEGDWNNSSSTSGAGSPSSGKEKSWLYTLDPILITIIAMSSLGVLLGATCAGLLLYCTCSYSGLSSRSCTTLENYNFELYDGLKHKVKINHQKCCSEA | binds

Results, then the molecule that gave them:

Row | binding | Molecule
3 | binds | Attractin (ATRN) (from UniProt Q99J86 87-1432)
4 | binds | neuropilin-1 (NRP1) (from UniProt Q9QWJ9 22-922) (receptor)
